The source of these data is publication PMC6028644.

By UniProt entry, the sequences of proteins in these tests, tags left out. Residues count along the entry.
UniProt P18418, residues 18-416: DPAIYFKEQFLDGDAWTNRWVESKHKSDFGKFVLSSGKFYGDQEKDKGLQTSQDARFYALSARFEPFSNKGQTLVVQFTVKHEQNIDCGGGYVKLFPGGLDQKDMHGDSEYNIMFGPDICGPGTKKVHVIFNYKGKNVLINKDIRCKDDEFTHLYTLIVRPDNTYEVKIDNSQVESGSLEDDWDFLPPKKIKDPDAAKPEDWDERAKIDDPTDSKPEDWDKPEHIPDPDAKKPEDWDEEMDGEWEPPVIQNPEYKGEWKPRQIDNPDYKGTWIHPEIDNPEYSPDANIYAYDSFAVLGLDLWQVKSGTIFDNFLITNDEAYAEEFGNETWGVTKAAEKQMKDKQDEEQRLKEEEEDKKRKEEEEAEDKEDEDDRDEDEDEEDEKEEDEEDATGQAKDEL
UniProt P24368, residues 34-216: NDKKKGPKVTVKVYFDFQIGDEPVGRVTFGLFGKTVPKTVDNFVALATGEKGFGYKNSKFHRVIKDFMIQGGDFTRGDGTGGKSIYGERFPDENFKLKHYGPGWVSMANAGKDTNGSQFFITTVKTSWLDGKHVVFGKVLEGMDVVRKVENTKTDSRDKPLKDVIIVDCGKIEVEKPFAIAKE

Results are given in words; binding and its absence hold for the method and conditions named. Binding seen in cells or lysates may run through a third protein. Some results given as binding are weak or reduced against the parent protein; the word gives no strength.

For experiment [1], the target named is T1, calcium-modulating cyclophilin ligand (CAML), endogenous in BRL-3A rat hepatocytes (rat (endogenous in BRL-3A)) (UniProt Q6DGG9).
T1 sequence: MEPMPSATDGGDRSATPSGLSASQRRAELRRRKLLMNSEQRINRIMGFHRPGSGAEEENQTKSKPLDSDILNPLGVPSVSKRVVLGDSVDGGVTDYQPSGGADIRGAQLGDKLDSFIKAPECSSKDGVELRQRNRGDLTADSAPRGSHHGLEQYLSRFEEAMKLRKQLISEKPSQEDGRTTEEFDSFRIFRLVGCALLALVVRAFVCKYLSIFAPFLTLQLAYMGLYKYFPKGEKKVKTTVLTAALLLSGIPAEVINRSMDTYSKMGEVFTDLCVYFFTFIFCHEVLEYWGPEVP
Briefly: co-IP; endogenous CAML with endogenous cyclophilin B or calreticulin in BRL-3A lysate, precipitated in either direction; cells transfected with pcDNA-control, pcDNA-ΔTM1-Flag or Tmub1-siRNA (for calreticulin also pcDNA-TMUB1-Flag), harvested on day 2; lysis buffer 20 mM Tris-HCl pH 7.5, 500 mM NaCl, 2% Triton X-100; overnight at 4 °C.

Experiment [2] concerns the target T1, calcium-modulating cyclophilin ligand (CAML), endogenous in BRL-3A rat hepatocytes (rat (endogenous in BRL-3A)). As to the kind of experiment: condition: only with overexpression of TMUB1 (pcDNA-TMUB1-Flag); co-IP; endogenous CAML with endogenous cyclophilin B in lysate of BRL-3A cells overexpressing TMUB1 (pcDNA-TMUB1-Flag), precipitated in either direction; lysis buffer 20 mM Tris-HCl pH 7.5, 500 mM NaCl, 2% Triton X-100; overnight at 4 °C.

For the substance “calreticulin, endogenous in BRL-3A rat hepatocytes (from UniProt P18418 18-416)”, the binding entry in experiment [1] is on record as “binds”. In the case of “cyclophilin B, endogenous in BRL-3A rat hepatocytes (from UniProt P24368 34-216)”, the values for the binding result in experiment [2] and in experiment [1] were “no binding” and “binds”, respectively.
